Where two headings read alike, the source gives them in different places.
System: zebrafish larvae
Settings: in vivo

In the case of `CCCCc1oc2ccccc2c1C(=O)c1cc(I)c(OCCN(CC)CC)c(I)c1` [Amiodarone], the “Visual toxicity (bent tail, distended peritoneum, edema, pericardial congestion)” value (shortened to “Visual toxicity”) (0.66 μM) is reported as 1/4, the “Visual toxicity” value (2 μM) is reported as 0/4 and the “Visual toxicity” value (6.6 μM) is reported as 3/4. For the same compound, the “Visual toxicity” value (20 μM) was 2/4.

From paper PMC6325638 (Clinics in liver disease, 2017)
